Source: patent publication US20260217819A1 (HANSOH BIO, published 2026)
No constants are given. Whether binding was seen depends on the method and setting.

The chains behind the UniProt entries cited, without tags or fusion partners. Residues count along the entry.
UniProt Q9R100, residues 26-786: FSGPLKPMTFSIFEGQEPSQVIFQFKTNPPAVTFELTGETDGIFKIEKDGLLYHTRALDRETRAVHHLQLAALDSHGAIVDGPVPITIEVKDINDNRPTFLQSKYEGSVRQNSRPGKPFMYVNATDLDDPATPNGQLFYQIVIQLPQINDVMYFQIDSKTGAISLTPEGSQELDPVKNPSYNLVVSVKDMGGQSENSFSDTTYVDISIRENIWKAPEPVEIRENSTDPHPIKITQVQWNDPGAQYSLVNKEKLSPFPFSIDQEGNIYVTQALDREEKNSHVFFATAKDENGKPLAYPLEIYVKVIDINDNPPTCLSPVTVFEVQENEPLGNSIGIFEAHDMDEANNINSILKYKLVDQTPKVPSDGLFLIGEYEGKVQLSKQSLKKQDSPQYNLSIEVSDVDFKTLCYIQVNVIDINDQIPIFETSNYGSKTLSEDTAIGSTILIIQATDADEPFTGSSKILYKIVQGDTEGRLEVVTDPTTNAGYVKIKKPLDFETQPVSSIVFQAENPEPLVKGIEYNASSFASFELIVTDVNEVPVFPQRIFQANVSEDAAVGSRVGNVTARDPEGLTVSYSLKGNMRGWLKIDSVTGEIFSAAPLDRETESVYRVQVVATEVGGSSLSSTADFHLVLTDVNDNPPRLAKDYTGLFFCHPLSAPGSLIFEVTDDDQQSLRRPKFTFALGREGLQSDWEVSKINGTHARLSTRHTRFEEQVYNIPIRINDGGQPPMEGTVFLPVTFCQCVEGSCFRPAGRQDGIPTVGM
UniProt P55281, residues 22-786: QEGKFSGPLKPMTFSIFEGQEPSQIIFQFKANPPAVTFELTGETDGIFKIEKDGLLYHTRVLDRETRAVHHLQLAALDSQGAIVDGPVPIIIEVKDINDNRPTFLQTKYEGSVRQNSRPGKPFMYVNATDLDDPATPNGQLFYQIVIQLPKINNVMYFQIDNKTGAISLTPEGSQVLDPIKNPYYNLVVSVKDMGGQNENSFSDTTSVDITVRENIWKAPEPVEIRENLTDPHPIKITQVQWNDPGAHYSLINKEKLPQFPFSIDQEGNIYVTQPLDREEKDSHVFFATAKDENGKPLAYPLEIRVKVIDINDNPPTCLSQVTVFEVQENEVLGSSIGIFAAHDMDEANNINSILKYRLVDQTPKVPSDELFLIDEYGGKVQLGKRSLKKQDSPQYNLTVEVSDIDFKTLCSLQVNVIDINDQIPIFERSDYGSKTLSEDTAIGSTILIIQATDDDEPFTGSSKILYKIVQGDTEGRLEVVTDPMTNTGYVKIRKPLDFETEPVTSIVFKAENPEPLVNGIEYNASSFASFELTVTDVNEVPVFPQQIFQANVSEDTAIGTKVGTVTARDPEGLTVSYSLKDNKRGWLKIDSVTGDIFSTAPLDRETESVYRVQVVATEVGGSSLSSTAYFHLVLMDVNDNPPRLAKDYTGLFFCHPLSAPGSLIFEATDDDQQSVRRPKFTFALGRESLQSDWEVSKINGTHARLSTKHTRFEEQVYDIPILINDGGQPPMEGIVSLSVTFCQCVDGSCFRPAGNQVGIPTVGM

Key:
mouse CDH17 (mouse) = mouse CDH17 (mouse) (UniProt Q9R100); assay: Octet (BLI), antibody captured on anti-hIgG Fc (AHC) sensor, antigen 200 nM in solution
rat CDH17 (rat) = rat CDH17 (rat) (UniProt P55281); assay: Octet (BLI), antibody captured on anti-hIgG Fc (AHC) sensor, antigen 200 nM in solution [Continued]

Row | binding (mouse CDH17 (mouse)) | binding (rat CDH17 (rat)) | Binder
1 | no binding (tested: 200 nM) |  | anti-CDH17 recombinant antibody 14B12 (human IgG1) (antibody, V domains shown) VH: QVQLQESGPGLVKPSETLSLTCTVSGGSINTYYRSWIRQPPGKGLEWIGYIYYSGNTNYNPSLKSRVTISADTSKNQFSLNLISVTAADTAMYYCARAQYGEEAFDIWGQGTLVTVSS VL: DIQMTQSPSSLSASVGDRVTITCRASQSITTYLNWYQQKPGKAPQLLIFAASRLQTGVPSRFSGSGSGTDFTLTISSLLPGDFATYYCQQSYNTPPTFGGGTKVEIKR
2 | no binding (tested: 200 nM) | no binding (tested: 200 nM) | anti-CDH17 recombinant antibody 10E11 (human IgG1) (antibody, V domains shown) VH: EVQLVQSGTEVKKPGESLKISCKDSGYRFSSYWIGWVRQMPGKGLEWMGIIYPGDSDTRYSPSFQGQVTISADKSISTAYLQWRSLKASDTAMYYCARRGWVNYFDYWGQGTLVTVSS VL: DIQMTQSPSSVSASVGDRVTITCRASQGISNWLGWYQQKPGKAPKLLIYAASSLQSGVPSRFSGSGSGTDFTLTISSLQPEDFATYYCQQANSFPLTFGGGTKVEIKR
